# Source: PubChem BioAssay AID504793 (Drosophila RNAi Screening Center, 2011)
# Screen: 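Whole-genome screen for parts of the DNA damage checkpoint at G2/M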 (primary screen)
# System: Drosophila S2R+ cells
# Reagent: long dsRNA against Drosophila genes, about 0.25 µg dsRNA per well
# Timing: 4 days of dsRNA, then 4 hours of drug before read-out
# Challenge: doxorubicin 0.5 µM for 4 hours to cause double-strand breaks, in cells also given a low, harmless dose of dsRNA against nbs to sensitise the assay
# Measured: 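Per-well count of mitotic cells stained for phospho-histone H3 after doxorubicin exposure, used as mitotic index; counts are raw and not normalised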
# Reading the numbers: mitotic cells: higher = more cells in mitosis, weaker G2 arrest
# Active means: 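a call needs confirmation in secondary tests, with other dsRNAs and a check of mitotic timing without damage, not just a high primary count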
# Meaning of the calls: active = confirmed in follow-up tests; inactive = not confirmed
# The screen tested about 23,000 reagents; this is an unselected part of those that have a named target and a result. Over the whole deposit, 62 (0.27%) got an active call. 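Calls come from follow-up tests whose scores are not deposited, so confirmed genes may have low counts here; counts are not normalised per plate.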 The raw values are shown without normalisation. A plus sign joins genes that one reagent is predicted to hit. No sequences are given here.
"mitotic cells, replicate 1","mitotic cells, replicate 2",Call,predicted target,amplicon
5,,inactive,CG42585 + CG31835,DRSC28807
3,,inactive,Xe7,DRSC12307
3,,inactive,CG7367,DRSC03049
4,,inactive,CG7367,DRSC28024
10,,inactive,Trf4-2 (Topoisomerase related function 4-2),DRSC15237
8,,inactive,Trf4-2 (Topoisomerase related function 4-2),DRSC25949
6,,inactive,Mettl14 (Methyltransferase like 14),DRSC03073
6,,inactive,ACXE (Adenylyl cyclase X E),DRSC00847
7,,inactive,Surf6 (Surfeit 6),DRSC15588
6,,inactive,Surf6 (Surfeit 6),DRSC29437
7,4,inactive,CG4382,DRSC02743
14,,inactive,CG4382,DRSC29493
15,,inactive,CG8323,DRSC07149
11,,inactive,bmm (brummer),DRSC10502
9,,inactive,Sugb (Sugar baby),DRSC10815
7,,inactive,Gfat2 (Glutamine:fructose-6-phosphate aminotransferase 2),DRSC14598
9,,inactive,Gfat2 (Glutamine:fructose-6-phosphate aminotransferase 2),DRSC26948
3,,inactive,verm (vermiform),DRSC11038
5,,inactive,verm (vermiform),DRSC24665
6,,inactive,Pura (Puratrophin-1-like),DRSC08891
6,,inactive,Pura (Puratrophin-1-like),DRSC10862
6,,inactive,Pura (Puratrophin-1-like),DRSC10864
3,,inactive,Pura (Puratrophin-1-like),DRSC10865
4,,inactive,Pura (Puratrophin-1-like),DRSC10866
8,,inactive,Pura (Puratrophin-1-like),DRSC26606
7,,inactive,GstO2 (Glutathione S transferase O2),DRSC10691
4,,inactive,GstO2 (Glutathione S transferase O2),DRSC29069
1,,inactive,CG8065,DRSC10959
5,,inactive,CG42633,DRSC16061
4,,inactive,wmd (wing morphogenesis defect),DRSC04436
4,,inactive,wmd (wing morphogenesis defect),DRSC29254
9,,inactive,CG32683,DRSC17990
11,,inactive,CG32683,DRSC18232
8,,inactive,CG32683,DRSC18233
9,,inactive,CG32683,DRSC29475
12,,inactive,CG17996 + Tsen2,DRSC02650
7,,inactive,Mkrn1 (Makorin 1),DRSC11870
3,,inactive,Mkrn1 (Makorin 1),DRSC25478
17,,inactive,ND-49 (NADH dehydrogenase (ubiquinone) 49 kDa subunit),DRSC17151
4,,inactive,RacGAP84C (Rac GTPase activating protein at 84C),DRSC12630
6,,inactive,CG9222,DRSC03158
6,,inactive,VhaM9.7-d (Vacuolar H[+] ATPase M9.7 subunit d),DRSC15028
6,,inactive,CG12780,DRSC06169
2,,inactive,CG10700,DRSC02096
12,,inactive,CG2889,DRSC18236
2,,inactive,PQBP1 (Poly-glutamine tract binding protein 1),DRSC14393
3,,inactive,Rif1 (Rap1 interacting factor 1),DRSC05593
8,,inactive,GCS1 (Glucosidase 1),DRSC19744
8,,inactive,GCS1 (Glucosidase 1),DRSC25625
6,,inactive,CG1309,DRSC08302
13,,inactive,CG1394,DRSC19539
3,,inactive,CG1394,DRSC25019
13,,inactive,CG32686,DRSC17645
5,,inactive,CG32686,DRSC25488
4,,inactive,CG32148,DRSC09338
9,,inactive,CG32148,DRSC28787
10,,inactive,CG11370,DRSC11653
5,,inactive,CG11370,DRSC28361
8,,inactive,CG6216,DRSC10606
9,,inactive,CG6216,DRSC28352
16,,inactive,smal (smoke alarm),DRSC02318
10,,inactive,smal (smoke alarm),DRSC02319
1,,inactive,smal (smoke alarm),DRSC02320
3,,inactive,smal (smoke alarm),DRSC02504
8,,inactive,smal (smoke alarm),DRSC22866
7,,inactive,smal (smoke alarm),DRSC26352
13,,inactive,Eaat2 (Excitatory amino acid transporter 2),DRSC00032
4,,inactive,Eaat2 (Excitatory amino acid transporter 2),DRSC00749
11,,inactive,Eaat2 (Excitatory amino acid transporter 2),DRSC26070
2,,inactive,Dh31-R (Diuretic hormone 31 Receptor),DRSC06669
7,,inactive,Dh31-R (Diuretic hormone 31 Receptor),DRSC23417
4,,inactive,Sod2 (Superoxide dismutase 2 (Mn)),DRSC07554
6,,inactive,Sod2 (Superoxide dismutase 2 (Mn)),DRSC27050
3,,inactive,CG6870,DRSC02998
6,,inactive,CG6870,DRSC25586
3,,inactive,CG8112,DRSC16377
4,,inactive,CG14126 (retired record),DRSC10130
10,,inactive,CG14126 (retired record),DRSC28859
18,,inactive,HUWE1,DRSC20089
8,,inactive,Phb1 (Prohibitin 1),DRSC03563
9,,inactive,Phb1 (Prohibitin 1),DRSC27403
4,,inactive,CG11811,DRSC09862
7,,inactive,fun (retired record),DRSC12300
17,,inactive,Gr10b (Gustatory receptor 10b),DRSC19477
9,,inactive,Gr10b (Gustatory receptor 10b),DRSC28702
9,,inactive,CG30270,DRSC22890
5,,inactive,CG10616,DRSC09750
7,,inactive,CG13168,DRSC06295
3,,inactive,CG42784,DRSC02534
15,,inactive,CG42784,DRSC22804
14,,inactive,CG42784,DRSC23000
4,,inactive,CG42784,DRSC25815
7,,inactive,CG42784,DRSC29731
6,,inactive,CG11828,DRSC14394
5,,inactive,CG11828,DRSC22580
13,,inactive,CG11828,DRSC29853
2,,inactive,Hasp (Hig-anchoring scaffold protein),DRSC02022
6,,inactive,CG42507 + Trl,DRSC09325
8,,inactive,CG42507 + Trl,DRSC25045
4,,inactive,CG43861 + CG12508 (retired record),DRSC02170
3,,inactive,Nipsnap,DRSC20169
4,,inactive,CG3902,DRSC10387
5,,inactive,CG3902,DRSC24267
5,,inactive,CG3511,DRSC04382
5,,inactive,CG3511,DRSC28281
2,,inactive,Nacalpha (Nascent polypeptide associated complex protein alpha subunit),DRSC07477
8,,inactive,Nacalpha (Nascent polypeptide associated complex protein alpha subunit),DRSC25351
6,,inactive,CG32487,DRSC21745
2,,inactive,CG32487,DRSC29078
4,,inactive,Pss (Phosphatidylserine synthase),DRSC11757

Only “mitotic cells, replicate 1”, for 17 of the entries above:
CG32686 [DRSC25488] = 5
CG32148 [DRSC09338] = 4
CG32148 [DRSC28787] = 9
CG11370 [DRSC11653] = 10
CG11370 [DRSC28361] = 5
CG6216 [DRSC10606] = 8
CG6216 [DRSC28352] = 9
smal (smoke alarm) [DRSC02318] = 16
smal (smoke alarm) [DRSC02319] = 10
smal (smoke alarm) [DRSC02320] = 1
smal (smoke alarm) [DRSC02504] = 3
smal (smoke alarm) [DRSC22866] = 8
smal (smoke alarm) [DRSC26352] = 7
Eaat2 (Excitatory amino acid transporter 2) [DRSC00032] = 13
Eaat2 (Excitatory amino acid transporter 2) [DRSC00749] = 4
Eaat2 (Excitatory amino acid transporter 2) [DRSC26070] = 11
Dh31-R (Diuretic hormone 31 Receptor) [DRSC06669] = 2
